Results on one substance are retold here after article PMC4819907.

Amino acid sequences for entries named in this document (tags omitted).
UniProt Q96EP0: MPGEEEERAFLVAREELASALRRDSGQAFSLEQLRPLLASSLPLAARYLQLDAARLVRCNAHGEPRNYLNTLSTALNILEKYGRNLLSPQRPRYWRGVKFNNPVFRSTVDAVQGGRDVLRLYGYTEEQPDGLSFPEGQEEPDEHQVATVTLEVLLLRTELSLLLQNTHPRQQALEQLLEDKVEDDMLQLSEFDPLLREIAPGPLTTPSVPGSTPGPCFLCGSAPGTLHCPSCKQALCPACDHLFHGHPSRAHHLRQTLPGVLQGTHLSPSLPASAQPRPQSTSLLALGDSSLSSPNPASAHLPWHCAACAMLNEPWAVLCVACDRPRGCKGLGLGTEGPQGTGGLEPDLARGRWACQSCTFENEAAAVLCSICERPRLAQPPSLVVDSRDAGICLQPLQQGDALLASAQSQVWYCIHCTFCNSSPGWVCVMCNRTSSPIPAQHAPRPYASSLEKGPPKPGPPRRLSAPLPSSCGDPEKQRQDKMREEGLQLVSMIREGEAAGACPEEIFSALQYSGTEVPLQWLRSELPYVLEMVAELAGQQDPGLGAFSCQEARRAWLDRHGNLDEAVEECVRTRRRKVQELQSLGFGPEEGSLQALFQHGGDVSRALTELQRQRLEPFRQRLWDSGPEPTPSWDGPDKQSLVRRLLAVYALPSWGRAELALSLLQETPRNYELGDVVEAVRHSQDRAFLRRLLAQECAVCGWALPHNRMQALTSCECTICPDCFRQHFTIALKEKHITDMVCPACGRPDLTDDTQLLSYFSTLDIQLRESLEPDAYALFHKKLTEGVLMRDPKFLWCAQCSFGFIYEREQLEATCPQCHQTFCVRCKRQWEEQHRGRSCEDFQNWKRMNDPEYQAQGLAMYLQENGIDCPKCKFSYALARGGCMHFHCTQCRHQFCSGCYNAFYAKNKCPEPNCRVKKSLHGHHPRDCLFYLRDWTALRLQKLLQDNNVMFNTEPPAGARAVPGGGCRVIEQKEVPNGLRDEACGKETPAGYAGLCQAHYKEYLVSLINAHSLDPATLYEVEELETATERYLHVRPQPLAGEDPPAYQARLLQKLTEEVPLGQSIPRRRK

These are yes or no findings as the source states them, for the method shown. In cells and extracts the contact can be indirect. Some results given as binding are weak or reduced against the parent protein; the word gives no strength. Tags and fused reporters may be left off the sequences shown.

In the assay the target is T1, FLAG-tagged CYLD (UniProt Q9NQC7).
T1 sequence: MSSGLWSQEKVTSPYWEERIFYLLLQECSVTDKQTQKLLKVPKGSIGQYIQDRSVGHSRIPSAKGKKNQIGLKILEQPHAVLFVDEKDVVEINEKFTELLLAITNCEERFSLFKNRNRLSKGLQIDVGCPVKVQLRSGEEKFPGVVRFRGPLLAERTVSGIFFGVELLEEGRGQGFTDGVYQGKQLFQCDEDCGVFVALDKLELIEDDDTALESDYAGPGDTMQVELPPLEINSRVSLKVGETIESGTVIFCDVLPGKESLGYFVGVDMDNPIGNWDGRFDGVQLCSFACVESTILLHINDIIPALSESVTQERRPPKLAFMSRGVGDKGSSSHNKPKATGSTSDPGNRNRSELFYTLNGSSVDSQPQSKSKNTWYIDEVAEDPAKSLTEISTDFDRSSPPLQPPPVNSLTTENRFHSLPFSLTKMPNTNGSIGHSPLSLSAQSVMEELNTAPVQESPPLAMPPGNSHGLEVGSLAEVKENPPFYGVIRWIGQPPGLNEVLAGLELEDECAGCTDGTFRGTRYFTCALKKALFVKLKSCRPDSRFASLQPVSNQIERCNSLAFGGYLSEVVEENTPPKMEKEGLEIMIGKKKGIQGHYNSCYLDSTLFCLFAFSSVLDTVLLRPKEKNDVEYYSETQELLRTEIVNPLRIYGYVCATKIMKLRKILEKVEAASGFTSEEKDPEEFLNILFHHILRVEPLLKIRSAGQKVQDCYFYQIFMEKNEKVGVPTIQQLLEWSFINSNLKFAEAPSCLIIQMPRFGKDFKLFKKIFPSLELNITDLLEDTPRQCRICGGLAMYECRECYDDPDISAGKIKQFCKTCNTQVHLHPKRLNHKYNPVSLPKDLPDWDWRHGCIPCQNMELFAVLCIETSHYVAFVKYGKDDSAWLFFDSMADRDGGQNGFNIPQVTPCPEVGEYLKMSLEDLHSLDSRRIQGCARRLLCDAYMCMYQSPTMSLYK
Kind of assay: co-IP; immunoprecipitation of exogenous FLAG-tagged CYLD; immunoblotting for HOIP. (In general: A western blot detects proteins with antibodies after separation by electrophoresis.)

For the substance “HOIP (from UniProt Q96EP0 1-1072) (enzyme)”, the binding entry is on record as “binds”.
